Test results published in article PMC6393303.
No constants are given. Whether binding was seen depends on the method and setting. Some entries that bind do so weakly or less than the wild type.

The chains behind the UniProt entries cited, without tags or fusion partners. Where a name states a change or a piece, a line headed by the entry shows the natural chain unless it says otherwise. A line that says so, or that is headed by a name, gives the form on record, which may keep a tag or linker.
Pol32-11 (amino acids 1–142 + 310–350, lacking amino acids 143–309) (P47110, form named): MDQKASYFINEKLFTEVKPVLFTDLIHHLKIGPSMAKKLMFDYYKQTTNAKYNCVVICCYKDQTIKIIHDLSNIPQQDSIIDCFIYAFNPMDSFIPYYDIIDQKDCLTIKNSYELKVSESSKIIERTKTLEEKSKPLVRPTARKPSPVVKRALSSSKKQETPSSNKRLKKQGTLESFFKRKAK

Target: T1, Pol3 catalytic subunit of mini-Pol δ-DV (N-terminal truncation of 81 amino acids, D520V) (S. cerevisiae) (UniProt P15436)
T1 sequence: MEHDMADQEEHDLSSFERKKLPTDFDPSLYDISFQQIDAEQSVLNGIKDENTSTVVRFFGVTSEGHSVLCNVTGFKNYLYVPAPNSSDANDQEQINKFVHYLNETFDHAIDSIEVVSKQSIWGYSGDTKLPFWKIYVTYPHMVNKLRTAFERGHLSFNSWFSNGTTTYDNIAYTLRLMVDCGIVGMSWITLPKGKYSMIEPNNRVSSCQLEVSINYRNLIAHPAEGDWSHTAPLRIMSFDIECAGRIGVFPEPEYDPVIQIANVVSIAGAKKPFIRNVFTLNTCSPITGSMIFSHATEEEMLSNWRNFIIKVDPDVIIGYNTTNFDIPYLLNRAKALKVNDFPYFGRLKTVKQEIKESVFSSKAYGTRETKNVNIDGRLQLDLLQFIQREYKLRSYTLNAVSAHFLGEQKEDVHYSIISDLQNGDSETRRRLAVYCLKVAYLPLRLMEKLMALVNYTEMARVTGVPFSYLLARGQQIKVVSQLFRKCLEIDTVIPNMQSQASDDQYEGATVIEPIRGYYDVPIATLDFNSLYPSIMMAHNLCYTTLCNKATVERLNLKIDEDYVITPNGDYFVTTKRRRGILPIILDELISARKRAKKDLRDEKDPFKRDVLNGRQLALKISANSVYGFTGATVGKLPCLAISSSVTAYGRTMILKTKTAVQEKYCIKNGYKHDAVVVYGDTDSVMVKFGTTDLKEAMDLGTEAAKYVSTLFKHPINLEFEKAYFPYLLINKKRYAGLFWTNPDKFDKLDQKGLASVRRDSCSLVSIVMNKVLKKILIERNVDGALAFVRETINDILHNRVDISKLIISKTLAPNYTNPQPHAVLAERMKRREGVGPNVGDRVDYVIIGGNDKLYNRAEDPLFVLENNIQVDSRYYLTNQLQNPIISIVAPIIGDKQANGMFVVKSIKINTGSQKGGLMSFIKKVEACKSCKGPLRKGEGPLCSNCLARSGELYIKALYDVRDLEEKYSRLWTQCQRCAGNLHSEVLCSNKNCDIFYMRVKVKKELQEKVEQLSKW
Assay: co-purification; mini-Pol δ-DV overexpressed in yeast and purified as a three-subunit complex; subunits seen in approximately equimolar ratio (Supplementary Figure S1A)

## Pol32-11 (amino acids 1–142 + 310–350, lacking amino acids 143–309) (from UniProt P47110 1-350) (domain or fragment)
  binding: binds
